Source: paper PMC12745170

Biological target: Flag-tagged RINT1 C-terminal domain, construct C (human)
Test: co-IP; 293T cells transfected with Flag-tagged RINT1 deletion constructs (Full, C, N) for 36 h; lysates immunoprecipitated with anti-Flag resin, immunoblotting

- binding: binds
B1: RNF39 in 293T cell lysate (co-IP with Flag-RINT1 constructs) (protein, UniProt Q9H2S5 1-420)
chain: MWWRDLTRLRLWLKREAIPGEGRKAAKVNAGVGEKGIYTASSRGGPPSARSKAVTVVAEGAASRSWLSMDAPELGPGLVERLEQLATCPLCGGSFEDPVLLACEHSFCRACLARRWGTPPATGTEASPTACPCCGLPCPRRSLRSNVRLAVEVRISRELREKLAEPGARAGRRRGGRIPTMGCLDLPGEDMRKTWRRFEVPTSKSSNSEDDLPEDYPVVKKMLHRLTADLTLDPGTAHRRLLISADRRSVQLAPPGTPAPPDGPKRFDQLPAVLGAQGFGAGRHCWEVETADAASCRDSSGEDADDEESHYAVGAAGESVQRKGCVRLCPAGAVWAVEGRGGRLWALTAPEPTLLGGVEPPPRRIRVDLDWERGRVAFYDGRSLDLLYAFQAPGPLGERIFPLFCTCDPRAPLRIVPAES

No constants are given. Whether binding was seen depends on the method and setting. Binding seen in cells or lysates may run through a third protein. Binding can be weak; no strength is given. Tags and fused reporters may be left off the sequences shown.
